Laboratory results as given in the supplement of paper PMC8728848.
Some of the results follow.

Tests used:
Experiment in all cases: glycan array binding signal (z-score within array); higher = stronger binding
Settings in all cases: glycan notation: IUPAC condensed, linker removed
[1] = target: Neu5Ac(a2-3)Gal(b1-3)[Fuc(a1-4)]GlcNAc(b1-3)Gal(b1-3)[Fuc(a1-4)]GlcNAc
How it was run: (§1)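 The Consortium for Functional Glycomics database supplied 3228 glycan arrays, of which those lacking an available protein sequence were dropped. The binding signal, a within-array Z-score, was averaged across arrays of the same protein sequence and across linkers. Negative scores can be read as non-binding.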

[2] = target: Neu5Ac(a2-3)Gal(b1-3)[Fuc(a1-4)]GlcNAc(b1-3)Gal(b1-4)[Fuc(a1-3)]GlcNAc
How it was run: as §1

[3] = target: Neu5Ac(a2-3)Gal(b1-3)[GlcNAc(b1-6)]GalNAc
How it was run: as §1

[4] = target: Neu5Ac(a2-3)Gal(b1-3)[Neu5Ac(a2-6)]GalNAc
How it was run: as §1

[5] = target: Neu5Ac(a2-3)Gal(b1-3)[Neu5Ac(a2-6)]GlcNAc(b1-3)[Fuc(a1-3)[Gal(b1-4)]GlcNAc(b1-6)]Gal(b1-4)Glc
How it was run: as §1

[6] = target: Neu5Ac(a2-3)Gal(b1-3)]Neu5Ac(a2-3)Gal(b1-4)]GlcNAc
How it was run: as §1

Neu5Ac(a2-3)Gal(b1-4)Glc = target: Neu5Ac(a2-3)Gal(b1-4)Glc
How it was run: as §1

[7] = target: Neu5Ac(a2-3)Gal(b1-4)GlcNAc
How it was run: as §1

[8] = target: Neu5Ac(a2-3)Gal(b1-4)GlcNAc(b1-2)Man
How it was run: as §1

[9] = target: Neu5Ac(a2-3)Gal(b1-4)GlcNAc(b1-2)Man(a1-3)[GlcNAc(b1-4)][Neu5Ac(a2-3)Gal(b1-4)GlcNAc(b1-2)Man(a1-6)]Man(b1-4)GlcNAc(b1-4)GlcNAc
How it was run: as §1

[10] = target: Neu5Ac(a2-3)Gal(b1-4)GlcNAc(b1-2)Man(a1-3)[Neu5Ac(a2-3)Gal(b1-4)GlcNAc(b1-2)Man(a1-6)]Man(b1-4)GlcNAc(b1-4)GlcNAc
How it was run: as §1

[11] = target: Neu5Ac(a2-3)Gal(b1-4)GlcNAc(b1-2)Man(a1-3)[Neu5Ac(a2-3)Gal(b1-4)GlcNAc(b1-2)Man(a1-6)]Man(b1-4)GlcNAc(b1-4)[Fuc(a1-6)]GlcNAc
How it was run: as §1

[12] = target: Neu5Ac(a2-3)Gal(b1-4)GlcNAc(b1-2)Man(a1-3)[Neu5Ac(a2-6)Gal(b1-4)GlcNAc(b1-2)Man(a1-6)]Man(b1-4)GlcNAc(b1-4)GlcNAc
How it was run: as §1

[13] = target: Neu5Ac(a2-3)Gal(b1-4)GlcNAc(b1-2)[Neu5Ac(a2-3)Gal(b1-4)GlcNAc(b1-2)]Man(a1-6)[Neu5Ac(a2-3)Gal(b1-4)GlcNAc(b1-2)Man(a1-3)][GlcNAc(b1-4)]Man(b1-4)GlcNAc(b1-4)GlcNAc
How it was run: as §1

[14] = target: Neu5Ac(a2-3)Gal(b1-4)GlcNAc(b1-2)[Neu5Ac(a2-3)Gal(b1-4)GlcNAc(b1-4)]Man(a1-3)[GlcNAc(b1-4)][Neu5Ac(a2-3)Gal(b1-4)GlcNAc(b1-2)[Neu5Ac(a2-3)Gal(b1-4)GlcNAc(b1-6)]Man(a1-6)]Man(b1-4)GlcNAc(b1-4)GlcNAc
How it was run: as §1

[15] = target: Neu5Ac(a2-3)Gal(b1-4)GlcNAc(b1-2)[Neu5Ac(a2-3)Gal(b1-4)GlcNAc(b1-4)]Man(a1-3)[GlcNAc(b1-4)][Neu5Ac(a2-3)Gal(b1-4)GlcNAc(b1-4)Man(a1-6)]Man(b1-4)GlcNAc(b1-4)GlcNAc
How it was run: as §1

[16] = target: Neu5Ac(a2-3)Gal(b1-4)GlcNAc(b1-2)[Neu5Ac(a2-3)Gal(b1-4)GlcNAc(b1-6)]Man(a1-6)[Neu5Ac(a2-3)Gal(b1-4)GlcNAc(b1-2)Man(a1-3)]Man(b1-4)GlcNAc(b1-4)GlcNAc
How it was run: as §1

[17] = target: Neu5Ac(a2-3)Gal(b1-4)GlcNAc(b1-3)Gal
How it was run: as §1

[18] = target: Neu5Ac(a2-3)Gal(b1-4)GlcNAc(b1-3)Gal(b1-3)GlcNAc
How it was run: as §1

[19] = target: Neu5Ac(a2-3)Gal(b1-4)GlcNAc(b1-3)Gal(b1-4)GlcNAc
How it was run: as §1

[20] = target: Neu5Ac(a2-3)Gal(b1-4)GlcNAc(b1-3)Gal(b1-4)GlcNAc(b1-2)Man(a1-3)[Neu5Ac(a2-3)Gal(b1-4)GlcNAc(b1-3)Gal(b1-4)GlcNAc(b1-2)Man(a1-6)]Man(b1-4)GlcNAc(b1-4)GlcNAc
How it was run: as §1

[21] = target: Neu5Ac(a2-3)Gal(b1-4)GlcNAc(b1-3)Gal(b1-4)GlcNAc(b1-3)Gal(b1-4)GlcNAc
How it was run: as §1

[22] = target: Neu5Ac(a2-3)Gal(b1-4)GlcNAc(b1-3)Gal(b1-4)GlcNAc(b1-3)Gal(b1-4)GlcNAc(b1-2)Man(a1-3)[Neu5Ac(a2-3)Gal(b1-4)GlcNAc(b1-3)Gal(b1-4)GlcNAc(b1-3)Gal(b1-4)GlcNAc(b1-2)Man(a1-6)]GalNAc
How it was run: as §1

[23] = target: Neu5Ac(a2-3)Gal(b1-4)GlcNAc(b1-3)Gal(b1-4)GlcNAc(b1-3)GalNAc
How it was run: as §1

[24] = target: Neu5Ac(a2-3)Gal(b1-4)GlcNAc(b1-3)Gal(b1-4)GlcNAc(b1-3)[Neu5Ac(a2-3)Gal(b1-4)GlcNAc(b1-3)Gal(b1-4)GlcNAc(b1-6)]GalNAc
How it was run: as §1

[25] = target: Neu5Ac(a2-3)Gal(b1-4)GlcNAc(b1-3)Gal(b1-4)GlcNAc(b1-6)[Gal(b1-3)]GalNAc
How it was run: as §1

[26] = target: Neu5Ac(a2-3)Gal(b1-4)GlcNAc(b1-3)Gal(b1-4)[Fuc(a1-3)]GlcNAc
How it was run: as §1

[27] = target: Neu5Ac(a2-3)Gal(b1-4)GlcNAc(b1-3)GalNAc
How it was run: as §1

[28] = target: Neu5Ac(a2-3)Gal(b1-4)GlcNAc(b1-3)[Neu5Ac(a2-3)Gal(b1-4)GlcNAc(b1-6)]GalNAc
How it was run: as §1

[29] = target: Neu5Ac(a2-3)Gal(b1-4)GlcNAc(b1-6)GalNAc
How it was run: as §1

B1: Blon2355mut (Bifidobacterium longum) (protein)
chain: MVQEPTLEWHVIPEPTNVEPLVGTCSLPLSGTVVEQRGADDAEAVFARQLVDDIKRVCGGRWQVASGEVQREVTLRTSPSLDDWSYVLEVSPDGVVITGSGFEGVRDGVQTLRQIIRQIGLTIPCMVIRDRPAFSTRGYYLDVTRGRVPSMAWLKSWVDRLCFYKYNQFQLYIEHTFQFNGLSEVWRGADPLTSSDILELDSYCAARGIELVPSVSTFGHHYTALRTRQLRDLGEFPEDADRPFSLIERMTHHTLNITDERSYEFSTSLIDELMPLFRSRKFNICANETFDLGKGRSKQESAKRGVGAMYADFVERLCRHVDDRGHDVMVWADVALEHPEIIDTLPKNITWLNWQYEPNVDDGTTAALADAGATQMVCPAVWCWNALIPRIDDAWNNITRMARHGRAHDVSGMLVTDWGDFGHVNDPRMSVPGMIFGAQQSWNPDAELSEVDMLSRISTIEYGDHTGSVVGALRGASAKGGFSWSDLVTYLELDDGRGGCNTEIVRVMGCLEAYRNDLPQSGQARLADARVSMLRTLRDSILAGRELNGKLDDAAKDITQLLRVAGDPSSAAVWSLAIDGQRLLNRVGLALLAAHGVVRQDEAGIDAAKLADELECWTEQYSRLWHEVSRQSELARIQHVVWRAADVLRSI
glycan array binding signal (z-score) [1]: -0.494 | glycan array binding signal (z-score) [2]: 1.67 | glycan array binding signal (z-score) [3]: 0.393 | glycan array binding signal (z-score) [4]: -0.544 | glycan array binding signal (z-score) [5]: 4.03 | glycan array binding signal (z-score) [6]: 0.621 | glycan array binding signal (z-score) (Neu5Ac(a2-3)Gal(b1-4)Glc): 3.29 | glycan array binding signal (z-score) [7]: -0.297 | glycan array binding signal (z-score) [8]: 1.97 | glycan array binding signal (z-score) [9]: -0.775 | glycan array binding signal (z-score) [10]: 0.367 | glycan array binding signal (z-score) [11]: -0.94 | glycan array binding signal (z-score) [12]: -0.951 | glycan array binding signal (z-score) [13]: -0.915 | glycan array binding signal (z-score) [14]: -0.925 | glycan array binding signal (z-score) [15]: -0.034 | glycan array binding signal (z-score) [16]: -1.1 | glycan array binding signal (z-score) [17]: -1.09 | glycan array binding signal (z-score) [18]: -0.299 | glycan array binding signal (z-score) [19]: -0.31 | glycan array binding signal (z-score) [20]: -0.289 | glycan array binding signal (z-score) [21]: -0.098 | glycan array binding signal (z-score) [22]: 1.09 | glycan array binding signal (z-score) [23]: -0.082 | glycan array binding signal (z-score) [24]: 1.42 | glycan array binding signal (z-score) [25]: -0.53 | glycan array binding signal (z-score) [26]: 0.142 | glycan array binding signal (z-score) [27]: -0.411 | glycan array binding signal (z-score) [28]: 2.06 | glycan array binding signal (z-score) [29]: -1.01
